According to PubChem BioAssay AID1347075 (National Center for Advancing Translational Sciences (NCATS), 2019):
The campaign covered roughly 400,000 compounds. About 5,500 (1.4%) were called active. This list was built around the results that the source calls inconclusive (neither active nor inactive); the mix of calls is not that of the screen. The call rests on the fitted dose curve; in most records, active means well fitted cell-killing curve with a large enough effect; inconclusive means small, poorly fitted or top-dose-only effect, or effect the other way; inactive means flat fitted curve, though single readings scatter. Potencies of inconclusive entries are doubtful fits and often do not repeat.

test: qHTS assay for MDR1-selective chemotherapeutics: Primary screen using the parental adenocarcinoma cell KB-3-1; conditions: KB-3-1 viability, CellTiter-Glo ATP luminescence, 72 h; activity change, negative = cytotoxic: at 46.1 µM (top of the series); further: nearly all actives have a fitted effect of over 60% in size
In short: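 Cells are dispensed, compounds pinned in, plates held at 37 °C for 72 h, then CellTiter-Glo is added and luminescence read after 10 minutes. Cell line: parental KB-3-1 in phenol-red-free DMEM, 10% FBS.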
On the % scale 0 is the no-effect control and ±100 the full control effect; potency means the concentration at half of the fitted maximal effect.

Row | Compound | Potency | activity change, negative = cytotoxic
1 | NC(N)=N/N=C/c1ccc(Br)cc1 | inconclusive: 3.26 µM [cytotoxic, partial curve, poor fit] | 
2 | O=C(NNc1nc2ccccc2s1)c1ccc(F)cc1 |  | inactive: -1.45%
3 | CCc1ccc(C2c3[nH]c4ccccc4c3CCN2C(=O)c2cc[n+]([O-])cc2)cc1 (centres undefined) | inconclusive: 29.1 µM [cytotoxic, single point] | 
4 | Cc1ccc(S(=O)(=O)Nc2ccc(C(OC(=O)c3ccccc3[N+](=O)[O-])(C(F)(F)F)C(F)(F)F)cc2)cc1 | inconclusive: 20.6 µM [cytotoxic, partial curve, poor fit] | 
5 | COc1ccc(C(=O)NNC(=S)NC(=O)/C=C/c2cccs2)cc1 | inconclusive: 23.1 µM [cytotoxic, single point] | 
6 | COc1ccccc1NC(=S)NCCc1c[nH]c2ccccc12 |  | inactive: -6.74%
7 | CCOC(=O)c1c(NC(=O)CSc2nnc(Cc3ccccc3)o2)sc(C(C)=O)c1C |  | inactive: -0.0445%
8 | COC(=O)c1ccc(NC(=O)c2nc(S(=O)(=O)Cc3ccccc3F)ncc2Cl)cc1 | inconclusive: 29.1 µM [cytotoxic, single point] | 
9 | CCOc1ccccc1NC(=O)CN1C(=O)CC(c2ccc(OC)c(OC)c2)Sc2ccccc21 (centres undefined) | inconclusive: 29.1 µM [cytotoxic, single point] | 
10 | CC(C)(C)c1ccc(C(=O)Nc2ccc(C=C(C#N)C#N)cc2)cc1 | inconclusive: 18.4 µM [cytotoxic, partial curve] | 
11 | CC(=O)c1cccc(NC(=O)C2CCCN2S(=O)(=O)c2cccc3nsnc23)c1 (centres undefined) | inconclusive: 29.1 µM [cytotoxic, single point] | 
12 | C=C(c1cn(C(C)=O)c2ccccc12)c1cn(C(C)=O)c2ccccc12 | inconclusive: 16.4 µM [cytotoxic, partial curve, poor fit] | 
13 | C[C@@H](NC(=O)c1coc(=O)c(Br)c1)c1ccccc1 | active: 11.6 µM | 
14 | COC(=O)c1cc(C(=O)c2ccc(C(C)(C)C)cc2)c[nH]1 | inconclusive: 16.4 µM [cytotoxic, single point] | 
15 | CCN(CC)S(=O)(=O)N1CCC(C(=O)NCC2COc3ccccc3O2)CC1 (centres undefined) | inconclusive: 32.6 µM [cytotoxic, partial curve, poor fit] | 
16 | CCCCN=c1scc(-c2ccc3c(c2)NC(=O)CO3)n1N=C1CCCC1 | inconclusive: 23.1 µM [cytotoxic, single point] | 
17 | CCNC(=O)C1(C)CCN(C(=O)c2cccc(Cl)c2)C1 (centres undefined) |  | inactive: -9.19%
18 | Cc1sc(NC(=O)Cc2ccc3c(c2)OCO3)nc1-c1ccc2c(c1)CCN2C(=O)c1ccccc1F | inconclusive: 23.1 µM [cytotoxic, single point] | 
19 | COC(=O)c1cc(C(=O)OCC(=O)NC2CCS(=O)(=O)C2)cc([N+](=O)[O-])c1 (centres undefined) | inconclusive: 2.06 µM [rising, full curve, poor fit] | 
20 | Cc1ccc(NC(=O)CCNC(=O)c2ccc(Cl)cc2)cc1C |  | inactive: -1.86%
21 | CC1CCc2c(nc3ncnn3c2Nc2ccc(OC(F)(F)F)cc2)C1 (centres undefined) | inconclusive: 32.6 µM [cytotoxic, partial curve, poor fit] | 
22 | COc1cc(/C=N/NC(=O)C23CC4CC(CC(C4)C2)C3)cc(Br)c1O | inconclusive: 3.66 µM [rising, partial curve, poor fit] | 

Row | Compound | Potency | activity change, negative = cytotoxic
23 | Cc1ccc(Cl)cc1Nc1nc(-c2sc(NC(=O)c3ccco3)nc2C)cs1 | active: 20.6 µM | 
24 | COc1ccccc1NC(=O)CN1CCCN(S(=O)(=O)c2ccc(Br)cc2)CC1 | inconclusive: 29.1 µM [cytotoxic, single point] | 
25 | COc1cc(C(=O)NNC(=S)NC(=O)/C=C/c2ccccc2)cc(OC)c1OC | inconclusive: 11.6 µM [cytotoxic, partial curve] | 
26 | Cc1ccccc1Nc1nnc(SCC(=O)c2c(N)n(C)c(=O)n(C)c2=O)s1 | inconclusive: 2.59 µM [rising, full curve, poor fit] | 
27 | N#C/C(=C\C1=C(N2CCOCC2)C(=C\c2ccc(Cl)cc2)/CC1)C(=O)Nc1ccccc1F |  | inactive: 0%
28 | CC(NC(=O)Cn1c(=O)[nH]c2ccsc2c1=O)C12CC3CC(CC(C3)C1)C2 (centres undefined) | inconclusive: 32.6 µM [cytotoxic, single point] | 
29 | COc1cc(/C=N/Nc2nc(=O)[nH]nc2C)ccc1O |  | inactive: -6.26%
30 | O=C(NCc1cccc(Cl)c1)c1ccc2ccccc2n1 | inconclusive: 29.1 µM [rising, single point] | 
31 | CCOc1ccc(N2C(=O)S/C(=C\c3ccc(O)c(OC)c3)C2=O)cc1 |  | inactive: 2.19%
32 | Cc1nnc(OCc2nc3ccccc3n2C)c2ccccc12 | inconclusive: 32.6 µM [cytotoxic, single point] | 
33 | Cc1cnc(C(=O)N2CCCC(N3CCN(c4cccc(C(F)(F)F)c4)CC3)C2)cn1 (centres undefined) |  | inactive: 4.6%
34 | COc1ccc(-c2ccc(C(=O)Nc3cc(OC)c(OC)c(OC)c3)c3occc23)c(C)c1 | inconclusive: 20.6 µM [cytotoxic, single point] | 
35 | Cc1ccc(S(=O)(=O)N2CCCCC2)cc1C(=O)OC(C)C(=O)NCC1CCCCC1 (centres undefined) | inconclusive: 20.6 µM [cytotoxic, single point] | 
36 | O=C(CCC(=O)c1ccc(F)cc1)Nc1cccc(S(=O)(=O)Nc2cccc(Cl)c2)c1 |  | inactive: 1.85%
37 | CCc1nc(SCc2ccccn2)[nH]c(=O)c1C |  | inactive: 18.5%
38 | Cc1cc[n+](CC(=O)c2ccc(NC(=O)c3ccccc3)cc2)c2ccccc12 | active: 10.3 µM | 
39 | C[n+]1cccc2ccc3c(c21)OC(N)=C(C#N)C3c1ccccc1 (centres undefined) |  | inactive: -9.9%
40 | O=C(Cc1ccccc1[N+](=O)[O-])N1CCN(c2ccc(F)cc2)CC1 |  | inactive: -9.38%
41 | COc1ccc(CCn2c(C)c(C(C)=O)c(C(C)=O)c2C)cc1OC | inconclusive: 0.0065 µM [cytotoxic, full curve] | 
42 | COc1ccc(-c2noc(CCC(=O)N(C)c3cccc(C)c3)n2)cc1 | inconclusive: 0.0046 µM [rising, full curve] | 
43 | COC(=O)c1ccc(CN2C(=O)NC(Cc3c[nH]c4ccccc34)C2=O)cc1 (centres undefined) |  | inactive: -27.1%
44 | COc1ccc(CNC(=O)c2cn(Cc3ccc(OC(C)=O)cc3)c(=O)s2)cc1 |  | inactive: 0.881%

Reformatted tab-delimited: part of the list above
Row	Compound	Potency	activity change, negative = cytotoxic
22	COc1cc(/C=N/NC(=O)C23CC4CC(CC(C4)C2)C3)cc(Br)c1O	inconclusive: 3.66 µM [rising, partial curve, poor fit]	
27	N#C/C(=C\C1=C(N2CCOCC2)C(=C\c2ccc(Cl)cc2)/CC1)C(=O)Nc1ccccc1F		inactive: 0%
35	Cc1ccc(S(=O)(=O)N2CCCCC2)cc1C(=O)OC(C)C(=O)NCC1CCCCC1 (centres undefined)	inconclusive: 20.6 µM [cytotoxic, single point]	
40	O=C(Cc1ccccc1[N+](=O)[O-])N1CCN(c2ccc(F)cc2)CC1		inactive: -9.38%
